48 compounds from PubChem BioAssay can be followed below.

Experiment [1] is described as follows: Drosophila SCA1 whole organism dose response for polyglutamine toxicity reduction (AID 1595). The following applies: Drosophila SCA1 polyglutamine model, at 1 µM, stronger effect = higher value.
Another experiment can be described thus: PubChem AID 1597. The following applies: Drosophila SCA1 polyglutamine model, at 1 µM, stronger effect = higher value.

The other results are listed elsewhere or left out. Entries with a potency or affinity are not part of this list. Entries without a call are filed as inconclusive in the source.

Consider `CN(C)CCOC(=O)C(c1ccccc1)C1(O)CCCC1` (stereo unspecified), for which the suppression of toxicity came to 0 in experiment [1] and 5 in the experiment “PubChem AID 1597”.
In the case of `CCC(C)C(N)C(=O)N1CCCC1C(=O)NC(C(=O)O)C(C)CC` (stereo unspecified), the suppression of toxicity (in experiment [1]; in the experiment “PubChem AID 1597”) was 15.7 throughout.
`CCc1cccc2c3c([nH]c12)C(CC)(CC(=O)O)OCC3` (stereo unspecified): the results for the suppression of toxicity (in experiment [1]; in the experiment “PubChem AID 1597”) were 0 and 0.715, respectively.
Regarding `CN(C)CCN(Cc1cccs1)c1ccccn1`, the results for the suppression of toxicity (in experiment [1]; in “PubChem AID 1597”) were 14.3 and 15.7, respectively.
On to `COC(=O)C1=C(C)NC(C)=C(C(=O)OC)C1c1ccccc1[N+](=O)[O-]`, for which the suppression of toxicity in experiment [1] was found to be 5.71; in “PubChem AID 1597”, 7.14.
On the same counts, the results for `CCCCOC(=O)c1ccc(N)cc1` are 0 and 0.715.
As to `NCCCC(N)CC(=O)NCC1NC(=O)C(CO)NC(=O)C(N)CNC(=O)C(C2CCN=C(N)N2)NC(=O)/C(=C/NC(N)=O)NC1=O` (stereo unspecified), the suppression of toxicity stood at 8.57 in experiment [1] and 7.14 in “PubChem AID 1597”.
Consider `CC(Oc1ccccc1)C(=O)N[C@@H]1C(=O)N2[C@@H]1SC(C)(C)[C@@H]2C(=O)O` (stereo partly specified), for which the suppression of toxicity in experiment [1] worked out at 0; in “PubChem AID 1597” it was 2.15.
The corresponding values for `C[C@@H]1OC(Oc2c(-c3ccc(O)c(O)c3)oc3cc(O)cc(O)c3c2=O)[C@H](O)[C@H](O)[C@H]1O` (stereo partly specified) are 0 and 2.15.
On the same counts, the results for `O=C(Nc1ccc([N+](=O)[O-])cc1Cl)c1cc(Cl)ccc1O` are 4.29 and 3.57.
On the same counts, the results for `O=c1cc(-c2ccccc2)oc2c(O)c(O)ccc12` are 1.43 and 7.14.
`NC(=O)c1ncn([C@@H]2O[C@H](CO)[C@@H](O)[C@H]2O)n1`: the suppression of toxicity in experiment [1] came to 2.85; in the experiment “PubChem AID 1597”, 5.
For `Oc1cc(O)c2c(c1)O[C@H](c1ccc(O)c(O)c1)[C@@H](O)C2`, the suppression of toxicity in experiment [1] amounted to 7.14; in the experiment “PubChem AID 1597”, 6.42.
On to `CC(N)C(=O)NC(Cc1ccccc1)C(=O)O` (stereo unspecified), for which the suppression of toxicity (in experiment [1]; in “PubChem AID 1597”) was 0 each time.
For the compound `NC(N)=Nc1nc(CSCC/C(N)=N\S(N)(=O)=O)cs1`, the suppression of toxicity was 4.29 in experiment [1] and 3.57 in “PubChem AID 1597”.
Consider `CC(=C(CCOP(=O)(O)O)SC(=O)c1ccccc1)N(C=O)Cc1cnc(C)nc1N`, for which the suppression of toxicity in experiment [1] was found to be 7.14; in the experiment “PubChem AID 1597”, 10.
On the same counts, the results for `Cc1ccc(/C(=C\CN2CCCC2)c2ccccn2)cc1` are 4.29 and 4.29.
On the same counts, the results for `C[C@@H]1CC2C3C[C@H](F)C4=CC(=O)C=C[C@]4(C)[C@@]3(F)[C@@H](O)C[C@]2(C)[C@@]1(O)C(=O)COC(=O)C(C)(C)C` (stereo partly specified) are 1.43 and 1.43.
`CC(C)[C@@H]1CC[C@@H](C)C[C@H]1O`: the suppression of toxicity is 4.29 in experiment [1] and 7.86 in the experiment “PubChem AID 1597”.
With `CC(C)=CCC1=C(O)c2ccccc2C(=O)C1=O`, the suppression of toxicity in experiment [1] amounted to 0; in “PubChem AID 1597” it was 2.86.
Turning to `CC1=C(C(=O)O)N2C(=O)[C@@H](NC(=O)[C@H](N)C3=CCC=CC3)[C@H]2SC1`, the suppression of toxicity worked out at 0 in experiment [1] and 2.15 in “PubChem AID 1597”.
As to `CC(=O)NC1SCCC1=O` (stereo unspecified), the suppression of toxicity (in experiment [1]; in “PubChem AID 1597”) was 2.86 throughout.
For `CS(=O)(=O)OCCCCOS(C)(=O)=O`, the suppression of toxicity in experiment [1] stood at 2.86; in the experiment “PubChem AID 1597”, 1.43.
For the compound `CCN1CCCC(OC(=O)C(c2ccccc2)c2ccccc2)C1` (stereo unspecified), the values for the suppression of toxicity (in experiment [1]; in the experiment “PubChem AID 1597”) were 1.43 and 8.57, respectively.
On the same counts, the results for `CNCCc1ccccn1` are 0 and 6.43.
Regarding `COc1ccc(Cl)cc1C(=O)NCCc1ccc(S(=O)(=O)NC(=O)NC2CCCCC2)cc1`, the suppression of toxicity in experiment [1] worked out at 2.85; in the experiment “PubChem AID 1597”, 3.58.
Regarding `CC(C)NNC(=O)c1ccncc1`, the suppression of toxicity stood at 7.14 in experiment [1] and 11.4 in the experiment “PubChem AID 1597”.
On the same counts, the results for `CCCNCC(O)COc1ccccc1C(=O)CCc1ccccc1` (stereo unspecified) are 0 and 1.43.
Consider `CCCCOc1cc(C(=O)NCCN(CC)CC)c2ccccc2n1`, for which the results for the suppression of toxicity (in experiment [1]; in the experiment “PubChem AID 1597”) were 2.85 and 11.4, respectively.
On the same counts, the results for `NCCCC(=O)O` are 2.85 and 0.
Take `Cc1ccnc(NS(=O)(=O)c2ccc(N)cc2)n1`: the results for the suppression of toxicity (in experiment [1]; in the experiment “PubChem AID 1597”) were 10 and 3.58, respectively.
Regarding `N[C@@H](Cc1ccc(O)c(O)c1)C(=O)O`, the suppression of toxicity in experiment [1] turned out to be 0; in the experiment “PubChem AID 1597” it was 2.15.
For `CN(C)CCCN1c2ccccc2Sc2ccc(Cl)cc21`, the suppression of toxicity turned out to be 1.43 in experiment [1] and 29.3 in “PubChem AID 1597”.
Turning to `O=C1OC(c2ccc(O)cc2)(c2ccc(O)cc2)c2ccccc21`, the figures for the suppression of toxicity (in experiment [1]; in “PubChem AID 1597”) were 1.43 and 0.715, respectively.
For the compound `Cn1c(=O)c2[nH]cnc2n(C)c1=O`, the suppression of toxicity in experiment [1] came to 1.43; in “PubChem AID 1597”, 6.42.
In the case of `OC(CCN1CCCC1)(c1ccccc1)C1CCCCC1` (stereo unspecified), the suppression of toxicity turned out to be 1.43 in experiment [1] and 6.42 in the experiment “PubChem AID 1597”.
Regarding `CC(=O)Nc1nnc(S(N)(=O)=O)s1`, the suppression of toxicity in experiment [1] is 7.14; in the experiment “PubChem AID 1597” it was 5.71.
On the same counts, the results for `Cc1c(OCC(F)(F)F)ccnc1CS(=O)c1nc2ccccc2[nH]1` (stereo unspecified) are 0 and 0.715.
On the same counts, the results for `CCC(=O)c1ccc2c(c1)N(CC(C)N(C)C)c1ccccc1S2` (stereo unspecified) are 2.86 and 5.
Consider `CC1=C(/C=C/C(C)=C/C=C/C(C)=C/C=C/C=C(C)/C=C/C=C(C)/C=C/C2=C(C)CCCC2(C)C)C(C)(C)CCC1`, for which the suppression of toxicity worked out at 0 in experiment [1] and 7.91 in “PubChem AID 1597”.
Consider `CN(C)CCOC(C)(c1ccccc1)c1ccccn1` (stereo unspecified), for which the suppression of toxicity is 1.43 in experiment [1] and 3.58 in the experiment “PubChem AID 1597”.
In the case of `C[C@]12C=CC(=O)C=C1CCC1C2[C@@H](O)C[C@@]2(C)C1CC[C@]2(O)C(=O)CO` (stereo partly specified), the figures for the suppression of toxicity (in experiment [1]; in the experiment “PubChem AID 1597”) were 1.43 and 10, respectively.
`Clc1cccc(Cl)c1NC1=NCCN1`: the suppression of toxicity came to 2.86 in experiment [1] and 5 in the experiment “PubChem AID 1597”.
The corresponding values for `Nc1nccs1` are 5.71 and 10.
Consider `O=C1CC2(CCCC2)CC(=O)N1CCCCN1CCN(c2ncccn2)CC1`, for which the suppression of toxicity in experiment [1] turned out to be 8.57; in “PubChem AID 1597”, 11.4.
In the case of `CC1OC1P(=O)(O)O` (stereo unspecified), the figures for the suppression of toxicity (in experiment [1]; in “PubChem AID 1597”) were 2.85 and 2.86, respectively.
On the same counts, the results for `NC[C@H](O)c1ccc(O)c(O)c1` are 0 and 3.57.
As to `CC(CN1c2ccccc2Sc2ccccc21)N(C)C` (stereo unspecified), the suppression of toxicity (in experiment [1]; in the experiment “PubChem AID 1597”) was 7.14 each time.
